From article PMC4390356
Results are given in words; binding and its absence hold for the method and conditions named. In cells and extracts the contact can be indirect. Binding can be weak; no strength is given.

Assays:
[1] = biological target: integrin αV (human (endogenous in corneal fibroblasts)); assay: co-IP; corneal fibroblast lysate in RIPA buffer; magnetic beads coated with anti-integrin αVβ3 or anti-αV antibody; immunoblot with anti-TGFBIp antibody
[2] = biological target: integrin αVβ3 (human (endogenous in corneal fibroblasts)); assay: as above

B1: Transforming growth factor-beta-induced protein (TGFBIp) (protein, UniProt Q15582 24-683)
chain: GPAKSPYQLVLQHSRLRGRQHGPNVCAVQKVIGTNRKYFTNCKQWYQRKICGKSTVISYECCPGYEKVPGEKGCPAALPLSNLYETLGVVGSTTTQLYTDRTEKLRPEMEGPGSFTIFAPSNEAWASLPAEVLDSLVSNVNIELLNALRYHMVGRRVLTDELKHGMTLTSMYQNSNIQIHHYPNGIVTVNCARLLKADHHATNGVVHLIDKVISTITNNIQQIIEIEDTFETLRAAVAASGLNTMLEGNGQYTLLAPTNEAFEKIPSETLNRILGDPEALRDLLNNHILKSAMCAEAIVAGLSVETLEGTTLEVGCSGDMLTINGKAIISNKDILATNGVIHYIDELLIPDSAKTLFELAAESDVSTAIDLFRQAGLGNHLSGSERLTLLAPLNSVFKDGTPPIDAHTRNLLRNHIIKDQLASKYLYHGQTLETLGGKKLRVFVYRNSLCIENSCIAAHDKRGRYGTLFTMDRVLTPPMGTVMDVLKGDNRFSMLVAAIQSAGLTETLNREGVYTVFAPTNEAFRALPPRERSRLLGDAKELANILKYHIGDEILVSGGIGALVRLKSLQGDKLEVSLKNNVVSVNKEPVAEPDIMATNGVVHVITNVLQPPANRPQERGDELADSALEIFKQASAFSRASQRSVRLAPVYQKLLERMKH
In the case of B1, the binding [1] is reported as “binds” and the binding [2] is reported as “binds”.
